Data as given in PubChem BioAssay AID1159578 (Peter MacCallum Cancer Centre, 2015)
The deposit covers about 18,000 reagents; shown is a random part of them. About 1,030 of all reagents (5.7%) were called active. 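Inactive calls also include pools with fewer than 3300 nuclei, whose migration was not assessed.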 Raw values are not corrected between plates. Unmarked entries are inactive. The numbers tell different reagents against one gene apart.

Screen: 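Knock-downs that alter how fast lymphatic endothelial cells migrate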 (primary screen)
Cell system: human lymphatic endothelial cells
Reagent: siRNA pool against human genes, 40 nM
Duration: 48 h after transfection
Measurement: 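High-content imaging of dye-stained cells in a scratch assay measures filled wound area and nuclei per well; duplicate means given as ratio to mock and robust z-score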
Scale: migration robust z-score: higher = faster migration into the scratch; migration relative to mock: higher = more scratch area covered than mock; nuclei per well: higher = more cells in the well
Rule for the call: 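Pools averaging fewer than 3300 nuclei are never called; remaining pools count as changed when migration robust z lies outside -2 to 2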
Meaning of the calls: active = migration changed; inactive = no migration change, or too few cells

The first 7 entries, ahead of the listing:
gene knocked down	pool no.	migration robust z-score	migration class with cell-count check	migration relative to mock	nuclei per well, duplicate mean
PCYT1A	1	-0.64	migration z between -2 and 2; enough cells	0.68	5448
CFAP47	1	0.25	migration z between -2 and 2; enough cells	0.95	6174
CFAP47	2	0.7	migration z between -2 and 2; enough cells	1.06	6600
STARD8	1	-0.68	migration z between -2 and 2; enough cells	0.71	4962
QPCTL	1	-1.63	migration z between -2 and 2; enough cells	0.47	6047
UGT2B7	1	-0.06	migration z between -2 and 2; enough cells	0.87	5450
ZNF746	1	0	migration z between -2 and 2; enough cells	0.88	6469

The list itself, from the start:
gene knocked down	pool no.	migration robust z-score	migration class with cell-count check	migration relative to mock	nuclei per well, duplicate mean
PCYT1A	1	-0.64	migration z between -2 and 2; enough cells	0.68	5448
CFAP47	1	0.25	migration z between -2 and 2; enough cells	0.95	6174
CFAP47	2	0.7	migration z between -2 and 2; enough cells	1.06	6600
STARD8	1	-0.68	migration z between -2 and 2; enough cells	0.71	4962
QPCTL	1	-1.63	migration z between -2 and 2; enough cells	0.47	6047
UGT2B7	1	-0.06	migration z between -2 and 2; enough cells	0.87	5450
ZNF746	1	0	migration z between -2 and 2; enough cells	0.88	6469
FA2H	1	-1.38	migration z between -2 and 2; enough cells	0.54	3972
SMS	1	-0.42	migration z between -2 and 2; enough cells	0.72	5119
SURF1	1	-0.2	migration z between -2 and 2; enough cells	0.83	6798
NUP205	1	0.58	migration z between -2 and 2; enough cells	1.04	5094
MAN2A2	1	1.53	migration z between -2 and 2; enough cells	1.1	5561
PMP2	1	-0.2	migration z between -2 and 2; enough cells	0.83	8490
UGT2A1	1	0.31	migration z between -2 and 2; enough cells	0.86	4462
RUNX2	1	-0.42	migration z between -2 and 2; enough cells	0.73	5028
TRIM10	1	1.32	migration z between -2 and 2; enough cells	1.06	6243
SLC37A3	1	-0.26	migration z between -2 and 2; enough cells	0.76	3958
SHROOM3	1	-1.5	migration z between -2 and 2; enough cells	0.5	3518
VAPB	1	0.82	migration z between -2 and 2; enough cells	1.1	6862
IRX2-DT	1	-0.74	migration z between -2 and 2; enough cells	0.7	4435
TGS1	1	0.6	migration z between -2 and 2; enough cells	0.92	6614
IFIT1B	1	0.92	migration z between -2 and 2; enough cells	1.12	6208
RNF152	1	0.2	migration z between -2 and 2; enough cells	0.84	6120
HCAR3	1	-0.78	migration z between -2 and 2; enough cells	0.66	5464
SLC38A3	1	-2.02	under 3300 nuclei; migration not judged	0.42	3096
PCGF6	1	-0.29	migration z between -2 and 2; enough cells	0.75	5405
HR	1	-0.46	migration z between -2 and 2; enough cells	0.72	5282
DUSP15	1	0.42	migration z between -2 and 2; enough cells	0.88	6314
EVA1B	1	-4.04 (active)	migration z below -2; enough cells	-0.16	6370
IGSF3	1	1.01	migration z between -2 and 2; enough cells	1.15	6076
DEPP1	1	-1.18	migration z between -2 and 2; enough cells	0.57	6396
FGF4	1	2.62 (active)	migration z above 2; enough cells	1.31	5678
IQGAP1	1	-1.15	migration z between -2 and 2; enough cells	0.58	5112
RASL10A	1	-0.13	migration z between -2 and 2; enough cells	0.78	4799
CISH	1	-0.5	migration z between -2 and 2; enough cells	0.71	5507
SLC25A52	1	-0.83	migration z between -2 and 2; enough cells	0.67	5024
TRIP6	1	-0.12	migration z between -2 and 2; enough cells	0.86	4401
NAALAD2	1	0.88	migration z between -2 and 2; enough cells	0.97	6248
PIK3CA	1	0	migration z between -2 and 2; enough cells	0.8	5902
GPR137	1	-0.1	migration z between -2 and 2; enough cells	0.86	6760
SRPK3	1	-0.83	migration z between -2 and 2; enough cells	0.64	4622
PCSK1N	1	-1.46	migration z between -2 and 2; enough cells	0.51	3434
ENOX2	1	-1.12	migration z between -2 and 2; enough cells	0.6	6997
DGCR6	1	1.64	migration z between -2 and 2; enough cells	1.31	6296
YARS2	1	0.23	migration z between -2 and 2; enough cells	0.94	6005
MS4A2	1	0	migration z between -2 and 2; enough cells	0.8	5128
HMG20B	1	1.4	migration z between -2 and 2; enough cells	1.08	4840
SLC52A1	1	-0.94	migration z between -2 and 2; enough cells	0.62	5634
ACOT13	1	-2.54 (active)	migration z below -2; enough cells	0.32	7660
RCSD1	1	-0.12	migration z between -2 and 2; enough cells	0.86	5643
FOXG1	1	-0.08	migration z between -2 and 2; enough cells	0.79	5683
PCP4	1	-0.35	migration z between -2 and 2; enough cells	0.8	5413
DLL4	1	-1.68	migration z between -2 and 2; enough cells	0.44	4780
SMN1	1	1.29	migration z between -2 and 2; enough cells	1.22	6992
CCL21	1	-1.12	migration z between -2 and 2; enough cells	0.59	4762
KPTN	1	0.08	migration z between -2 and 2; enough cells	0.82	5076
BMAL2	1	-0.24	migration z between -2 and 2; enough cells	0.76	5213
